Drawing on article PMC5610320, this text covers binding for 2 molecules.

These are yes or no findings as the source states them, for the method shown. Binding seen in cells or lysates may run through a third protein. Some entries that bind do so weakly or less than the wild type. Sequences can lack the tags named with a protein.

Assay [1] concerns the target T1, glutathione S-transferase (GST)-fused CIB1 (human) (UniProt Q99828).
T1 sequence: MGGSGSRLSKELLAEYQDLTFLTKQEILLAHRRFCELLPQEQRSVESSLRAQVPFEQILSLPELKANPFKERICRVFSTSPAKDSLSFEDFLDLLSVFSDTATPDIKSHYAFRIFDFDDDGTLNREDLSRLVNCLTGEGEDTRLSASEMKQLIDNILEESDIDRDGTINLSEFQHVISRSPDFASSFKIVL
Nature of the assay: pull-down; GST-CIB1 immobilised on glutathione-agarose beads; 35S-labelled in vitro translated ASK1 variants incubated for 4 h at 4 °C in a binding buffer; SDS-PAGE and autoradiography; only the target purified.

A further assay concerns the target Myc-ASK1 (UniProt Q99683). Nature of the assay: co-IP; transfected SH-SY5Y cells with or without ectopically expressed CIB1 (Fig. S4; its legend was not shown, the method is taken from the paper's co-immunoprecipitation methods).

B1: ASK1 (378-648) (domain or fragment, UniProt Q99683 378-648)
chain: MVQSEGQVASDMYCLVGRIYKDMFLDSNFTDTESRDHGASWFKKAFESEPTLQSGINYAVLLLAAGHQFESSFELRKVGVKLSSLLGKKGNLEKLQSYWEVGFFLGASVLANDHMRVIQASEKLFKLKTPAWYLKSIVETILIYKHFVKLTTEQPVAKQELVDFWMDFLVEATKTDVTVVRFPVLILEPTKIYQPSYLSINNEVEEKTISIWHVLPDDKKGIHEWNFSASSVRGVSISKFEERCCFLYVLHNSDDFQIYFCTELHCKKFFE
modifications: 35S-methionine label
Take B1: the binding entry in assay [1] is listed as “binds”.

B2: Flag epitope-tagged CIB1 (Flag-CIB1) (protein, UniProt Q99828 1-191)
chain: T1 sequence
In the case of B2, the binding entry with Myc-ASK1 is recorded as “binds”.
